Measurements: patent publication US20120077731A1
Results are given in words; binding and its absence hold for the method and conditions named. A result given as binding can be weak or reduced; the word gives no strength.

Legend:
[1] = molecular target: Cyno IL-6R (cynomolgus monkey); assay: SPR Biacore 3000
[2] = molecular target: Cyno plasma sIL-6R (cynomolgus monkey); assay: plasma potency ELISA, cyno plasma + human IL-6 50 ng/mL; sIL-6R captured on BN-12, bound IL-6 detected; blocked ligand IL-6

| Binder | binding [1] | binding [2] |
| --- | --- | --- |
| IL6R65 (VHH) VHH: EVQLVESGGGLVQPGGSLRLSCAASGSIFKVNAMGWYRQAPGKGRELVAGIISGGSTNYADSVKGRFTISRDNAKNTLYLQMNSLRPEDTAVYYCAFVTTNSDYDLGRDYWGQGTLVTVSS | binds | binds |
| IL6R03 (VHH, not shown: small tags and cut ends) VHH: EVQLVESGGGLVQAGGSLRLSCAASGSIFKVNAMGWYRQAPGKQRELVAGIISGGSTNYADSVKGRLTISRDNAKNTVYLQMNSLKPEDTAVYYCSFVTTNSDYDLGRDYWGQGTQVTVSS | binds | – |
